Screen size: about 320,000 compounds; about 22,000 (6.9%) were called active. The shares of active, inactive and inconclusive entries below differ from those in the screen. Calls come from the whole dose curve; as a rule, active = well fitted inhibition curve with a large enough effect; inconclusive = small, poorly fitted or top-dose-only effect, or another doubt; inactive = no such curve, though single readings can be large or run the other way. A potency beside an inconclusive call is a rough fit, not a confirmed value.
Experiment: Primary qHTS for delayed death inhibitors of the malarial parasite plastid, 96 hour incubation
Settings: P. falciparum luciferase reporter growth; series mostly up to 28.7 µM
In short: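 Two-generation exposure (96 h) targets delayed-death phenotype. Reporter parasites carrying integrated firefly luciferase, in red cells at 2% hematocrit and 0.05% parasitemia final, kept at 37 C, 5% CO2; luminescence loss indicates inhibition.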
Potency is the fitted concentration of half-maximal effect.

Structure (SMILES) | Potency
O=C(CNC(=O)c1ccc(Br)cc1)c1ccc(Br)cc1 | inconclusive: 18.5 µM [inhibitor, single point]
Cc1[nH]c2ccccc2c1C(=O)/C=C/c1ccccc1 | inconclusive: 18.5 µM [inhibitor, single point]
Cc1nnc(NC(=O)CSc2nnc3scc(-c4ccc(C)c(C)c4)n23)s1 | inconclusive: 18.5 µM [inhibitor, single point]
C/C(=N/Nc1nc(-c2ccccc2F)nc2ccccc12)c1ccccc1O | inconclusive: 1.04 µM [inhibitor, full curve, poor fit]
Cc1c(C(=O)/C=C/N(C)C)nnn1-c1ccc(Cl)cc1C#N | inconclusive: 9.28 µM [inhibitor, partial curve]
Cc1cc(C)c(C(=O)C(C)OC(=O)Cn2cnc3c2c(=O)n(C)c(=O)n3C)cc1C (stereo not given) | inactive
O=S(=O)(c1cccs1)N1CCN(Cc2nc3ccccc3s2)CC1 | inconclusive: 18.5 µM [inhibitor, single point]
CC(=O)C1C(c2ccc(Br)cc2)C2C(C)=NN=C2CC1(C)O (stereo not given) | inactive
O=C(Nc1ccc(S(=O)(=O)N2CCOCC2)cc1)c1cccc([N+](=O)[O-])c1 | inconclusive: 14.7 µM [inhibitor, single point]
CN1CCC(NC(=O)Nc2ccc(Br)cc2)CC1 | inconclusive: 4.15 µM [inhibitor, partial curve]
CN(C)S(=O)(=O)c1cccc(NC(=O)c2ccc(S(=O)(=O)N3CCCC3)cc2)c1 | inconclusive: 7.38 µM [inhibitor, partial curve]
COc1ccc(NC(=O)c2c(NC(=O)CCC(=O)O)sc3c2CCCCC3)cc1 | inactive
CN(C)S(=O)(=O)c1ccc(S(=O)(=O)NCc2cccs2)cc1 | inconclusive: 1.17 µM [inhibitor, full curve, poor fit]
N#CCN(C(=O)COC(=O)C1CC2CCCC(C1)C2=O)c1ccccc1 (stereo not given) | inconclusive: 4.15 µM [inhibitor, single point]
CCOc1ccc(C(=O)NC(Cc2ccccc2)C(=O)OC)cc1 (stereo not given) | inactive
COc1cc(NC(=O)c2ccc(OC)c([N+](=O)[O-])c2)ccc1NC(=O)c1cccs1 | inactive
Cc1cccc(NS(=O)(=O)c2cccc(C(=O)N3CCN(C/C=C/c4ccccc4)CC3)c2)c1 | active: 10.4 µM
CC(=O)N1CC23C=CC(CC2CC12CCCCCC2)O3 (stereo not given) | inconclusive: 18.5 µM [inhibitor, single point]
COc1ccccc1CN(C)c1ccc(S(=O)(=O)N2CCN(C)CC2)cn1 | inconclusive: 3.7 µM [inhibitor, partial curve, poor fit]
CCCC(CCC)C(=O)Nc1cccc(-c2cn3c(n2)SCC3)c1 | inconclusive: 7.38 µM [inhibitor, partial curve]
COc1cccc(NC(=S)NCc2cccnc2)c1 | inconclusive: 13.1 µM [inhibitor, single point]
O=C(NCCc1ccc(F)cc1)c1ccc(NS(=O)(=O)c2ccc3[nH]c(=O)[nH]c3c2)cc1 | inconclusive: 18.5 µM [inhibitor, single point]
CCCCCCCc1ccc(C2NC(=S)NC3=C2C(=O)c2ccccc23)cc1 (stereo not given) | inconclusive: 0.147 µM [inhibitor, partial curve, poor fit]
O=C(Nc1ccc(Br)cc1)c1cc([N+](=O)[O-])cc([N+](=O)[O-])c1 | inactive

Reprinted at random: four compounds from above.
Structure (SMILES) | Potency
Cc1cccc(NS(=O)(=O)c2cccc(C(=O)N3CCN(C/C=C/c4ccccc4)CC3)c2)c1 | active: 10.4 µM
Cc1c(C(=O)/C=C/N(C)C)nnn1-c1ccc(Cl)cc1C#N | inconclusive: 9.28 µM [inhibitor, partial curve]
CCOc1ccc(C(=O)NC(Cc2ccccc2)C(=O)OC)cc1 (stereo not given) | inactive
Cc1[nH]c2ccccc2c1C(=O)/C=C/c1ccccc1 | inconclusive: 18.5 µM [inhibitor, single point]

Continued:

Structure (SMILES) | Potency
COP(=O)(OC)C(Nc1ccccc1)c1ccccc1 (stereo not given) | active: 16.5 µM
C/C(CC(=O)N1CCN(C=O)CC1)=N\NC(=O)c1cc2ccccc2cc1O | inactive
COc1cccc(NC(=O)N2CCN(c3cccc(C)c3)C(C)C2)c1 (stereo not given) | inactive
COc1ccc(S(=O)(=O)N2CC(O)C[C@H]2C(=O)OCC(=O)N2CCCCCC2)cc1 (stereo not given in full) | inactive
Cc1ccc[n+](CC(=O)Nc2ccc(C)c(C)c2)c1 | inconclusive: 18.5 µM [inhibitor, single point]
CC(=O)N1CC(C)Oc2ccc(S(=O)(=O)Nc3ccc(Cl)cn3)cc21 (stereo not given) | inconclusive: 14.7 µM [inhibitor, partial curve, poor fit]
O=C1c2cccc3cccc(c23)C(=O)N1c1ccc(O)cc1 | inconclusive: 10.4 µM [inhibitor, single point]
Cc1cc(C)c(NC(=O)C(C)c2cccc(C(=O)c3ccccc3)c2)c(C)c1 (stereo not given) | inconclusive: 0.0586 µM [inhibitor, full curve, poor fit]
CCOc1ccc(NC(=O)CN(C)C(=O)c2ccc(N3CCCC3)c([N+](=O)[O-])c2)cc1OCC | inconclusive: 0.828 µM [inhibitor, full curve, poor fit]
CSc1ccc(C2Nc3cccc4cccc(c34)N2)cc1 | inconclusive: 13.1 µM [inhibitor, single point]
O=C(Nc1ccc(F)cc1)Nc1sccc1-c1nc2ccccc2s1 | inconclusive: 10.4 µM [inhibitor, single point]
COc1ccc(NC(=O)CSCC(=O)Nc2ccccc2N2CCCCC2)cc1 | inconclusive: 18.5 µM [inhibitor, single point]
O=C(c1csc2c1CCCCC2)N1CCN(c2ncccn2)CC1 | inconclusive: 10.4 µM [inhibitor, partial curve, poor fit]
CCN(CC)S(=O)(=O)c1ccc(Cl)c(C(=O)NC)c1 | inactive
NS(=O)(=O)c1ccc(NC(=O)c2ccccc2C(=O)N2CCCCC2)cc1 | inconclusive: 6.57 µM [inhibitor, partial curve, poor fit]
Cn1nc(C(=O)NCc2cccs2)c2ccccc2c1=O | inconclusive: 10.4 µM [inhibitor, single point]
C[C@H](NC(N)=O)C(=O)OCC(=O)NCc1cccs1 | inconclusive: 4.15 µM [inhibitor, single point]
COc1cc2c(cc1OC)CN(C(=O)CCNS(=O)(=O)c1ccccc1F)CC2 | inconclusive: 20.8 µM [inhibitor, single point]
COCCSc1nnc(NC(=O)c2ccc3c(c2)OCO3)s1 | inactive
CCOc1ccc(S(=O)(=O)NCCCN2CCCC2=O)cc1 | inactive
COc1ccc(C2CC(c3ccc(Br)cc3)=NN2C(=O)CN2CCCC2)cc1 (stereo not given) | inactive
Oc1ccc(CC2CC3CCN2CC3)cc1O (stereo not given) | inactive
C/C(=C\c1ccc(N(C)C)cc1)[N+](=O)[O-] | inconclusive: 1.04 µM [inhibitor, partial curve, poor fit]
CCCN(C(=O)c1ccc(N2CCCC2=O)cc1)C1CCS(=O)(=O)C1 (stereo not given) | inconclusive: 1.85 µM [inhibitor, partial curve, poor fit]

Structure (SMILES) | Potency
O=C(O)CC(CC(=O)Nc1ccc(C(=O)O)cc1)c1ccccc1 (stereo not given) | inactive
Cc1cc(NC(=O)CSc2nnc(-c3ccc(O)cc3)o2)no1 | inconclusive: 4.15 µM [inhibitor, full curve, poor fit]
O=C(Nc1c2c(nn1-c1ccc([N+](=O)[O-])cc1)CS(=O)(=O)C2)c1ccco1 | inconclusive: 11.7 µM [inhibitor, partial curve]
CCOc1ccc(S(=O)(=O)NCC2CCCO2)cc1NC(=O)c1ccccc1F (stereo not given) | inconclusive: 11.7 µM [inhibitor, single point]
COc1ccc(/C=C/C(=O)NC(=S)Nc2ccc(Br)cn2)cc1 | inactive
COc1cccc(CNC(=O)c2cc(S(=O)(=O)N3CCCCC3)c[nH]2)c1 | inconclusive: 10.4 µM [inhibitor, single point]
Oc1cc(Br)ccc1C=Nc1ccc(N2CCCCC2)cc1 | active: 8.28 µM
OCC1(Cc2ccc(Cl)cc2)CCN(Cc2ccccc2F)CC1 | inconclusive: 10.4 µM [inhibitor, single point]
CC(C)/C=C/C(=O)N1CCC(N2CCC(C(=O)N3CCOCC3)CC2)CC1 | inconclusive: 16.5 µM [inhibitor, single point]
COc1cc(NC(=O)c2csc(N)n2)cc(C(=O)Nc2cccc(C(F)(F)F)c2)c1 | inconclusive: 18.5 µM [inhibitor, single point]
C/C(=N/NC(=O)CNC(=O)c1cccnc1)c1ccc(Cl)c(Cl)c1 | inactive
CC(C)(C)OC(=O)N1CCN(CCNC(=O)c2ccccc2)CC1 | inactive
Cc1cccc(OP(=O)(Oc2cccc(C)c2)OC(c2ccccc2)C(F)(F)F)c1 (stereo not given) | active: 13.1 µM
Cc1sc(NC(=O)c2cc(-c3ccc(Cl)cc3)nc3ccccc23)c(C(N)=O)c1C | inactive
COCCNC(=O)Nc1ccc2nc(-c3ccco3)c(-c3ccco3)nc2c1 | inconclusive: 18.5 µM [inhibitor, single point]
CCN(CC(=O)Nc1cc(Cl)ccc1C)C(=O)Cc1sc(C)nc1-c1ccc(F)cc1 | active: 4.65 µM
COCC1CCCN(Cc2nc(C(c3ccccc3)c3ccccc3)no2)C1 (stereo not given) | inconclusive: 9.28 µM [inhibitor, single point]
CC1(C(=O)N2CCN(Cc3ccccc3Cl)CC2)CC1(Cl)Cl (stereo not given) | inconclusive: 13.1 µM [inhibitor, single point]
CCCCNC(=O)c1cc2c(-c3ccc(Cl)cc3)nn(C)c2s1 | inconclusive: 9.28 µM [inhibitor, single point]
COC(=O)COc1ccc(C(C2C(=O)CC(C)(C)CC2=O)C2C(=O)CC(C)(C)CC2=O)cc1 | inactive
O=C(c1cccnc1)N1c2ccccc2Sc2ccccc21 | inactive
O=C(Cn1[nH]c(=O)c2ccccc2c1=O)Nc1cccnc1 | inconclusive: 11.7 µM [inhibitor, single point]

From PubChem BioAssay AID504834 (National Center for Advancing Translational Sciences (NCATS), 2011)
